Values from PubChem BioAssay AID1259306 (Sanger Institute, 2017)
In all, the deposit lists 794 reagents; shown is a part drawn at random. Over the whole deposit, 11 (1.4%) got an active call. 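Calls reflect knock-down alone; synergy scores play no part, so knock-downs synergising with a drug can be called no change.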 Entries without a mark were called inactive. No viability above 1 is reported: the scale is capped. Reagent sequences are not shown. The record does not give: the amount of reagent, the time to read-out.

Test: 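Find kinases whose loss reduces colorectal cancer cell viability or aids targeted drugs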 (primary screen)
Cells: human SNU-C5 colorectal cancer cells
Reagents: siRNA pool against human genes
Treatment: DMSO vehicle alone, or one anchor drug: BYL719 at 1 µM, cetuximab at 5 µg/ml or trametinib at 10 nM, given 24 h into the assay
Measurement: 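Replicate-averaged viability against non-targeting pool control, given as fraction and robust z-score; separate synergy scores for BYL719, cetuximab and trametinib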
Direction: robust z-score, knock-down alone and viability, knock-down alone: higher = more viable cells; synergy score with BYL719: higher = stronger synthetic lethality with BYL719; synergy score with cetuximab: higher = stronger synthetic lethality with cetuximab; synergy score with trametinib: higher = stronger synthetic lethality with trametinib
Rule for the call: 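Called essential when the robust z-score for knock-down alone is below -3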
Meaning of the calls: active = essential (knock-down alone); inactive = no change alone

Gene | robust z-score, knock-down alone | viability, knock-down alone | synergy score with BYL719 | synergy score with cetuximab | synergy score with trametinib
BMAL1 (GeneID 406) | -3.3 (active) | 0.41 | -0.096 | -0.119 | -0.265
RPS6KL1 (GeneID 83694) | 0.308 | 0.906 | -0.0759 | -0.00434 | -0.0595
ITK (GeneID 3702) | -0.932 | 0.735 | -0.162 | 0.0317 | -0.251
DGKD (GeneID 8527) | 0.633 | 0.951 | 0.0764 | 0.0614 | -0.117
VRK2 (GeneID 7444) | 0.597 | 0.946 | 0.118 | 0.229 | 0.036
TAOK3 (GeneID 51347) | -0.433 | 0.804 | 0.0473 | -0.128 | -0.0739
ERN1 (GeneID 2081) | -3.16 (active) | 0.428 | -0.205 | -0.111 | -0.222
PIK3CB (GeneID 5291) | -0.578 | 0.784 | -0.0601 | -0.0427 | -0.193
DAPK3 (GeneID 1613) | -1.2 | 0.699 | 0.181 | -0.0254 | -0.178
IRAK2 (GeneID 3656) | -0.0314 | 0.859 | -0.141 | -0.141 | 0.0235
PANK2 (GeneID 80025) | 0.707 | 0.961 | 0.214 | 0.0259 | -0.116
CHD4 (GeneID 1108) | -0.692 | 0.768 | -0.015 | -0.0424 | -0.0544
HK3 (GeneID 3101) | 0.989 | 1 | 0.118 | 0.0849 | 0.06
CSNK1A1L (GeneID 122011) | 0.989 | 1 | 0.229 | 0.0902 | 0.0639
NAGK (GeneID 55577) | -1.63 | 0.639 | -0.235 | -0.0116 | -0.211
MTOR (GeneID 2475) | 0.547 | 0.939 | 0.136 | 0.0927 | -0.0869
POMK (GeneID 84197) | 0.468 | 0.928 | 0.175 | -0.0321 | -0.227
DYRK2 (GeneID 8445) | 0.0673 | 0.873 | 0.144 | -0.089 | 0.143

Look-ups from above.
PIK3CB (GeneID 5291), viability, knock-down alone = 0.784
HK3 (GeneID 3101), viability, knock-down alone: 1
Result for TAOK3 (GeneID 51347) under “synergy score with cetuximab”: -0.128
Value of CHD4 (GeneID 1108) in “synergy score with trametinib”: -0.0544

The listing continues.
Gene | robust z-score, knock-down alone | viability, knock-down alone | synergy score with BYL719 | synergy score with cetuximab | synergy score with trametinib
EPHB3 (GeneID 2049) | 0.109 | 0.879 | -0.00561 | -0.121 | -0.166
SGK1 (GeneID 6446) | 0.989 | 1 | 0.127 | 0 | 0.0447
NME1 (GeneID 4830) | 0.537 | 0.938 | 0.271 | 0.173 | -0.137
MAPK13 (GeneID 5603) | 0.989 | 1 | 0.0168 | 0 | -0.134
FLT1 (GeneID 2321) | 0.989 | 1 | 0.0301 | 0 | -0.119
WNK2 (GeneID 65268) | 0.989 | 1 | 0 | 0 | 0.0428
CLSPN (GeneID 63967) | 0.794 | 0.973 | 0.183 | 0.0454 | -0.0124
TRIB2 (GeneID 28951) | -0.19 | 0.838 | 0.0646 | -0.162 | 0.128
OBSCN (GeneID 84033) | -0.875 | 0.743 | -0.148 | -0.0174 | -0.125
DSTYK (GeneID 25778) | 0.109 | 0.879 | 0.0799 | -0.121 | -0.0891
MUSK (GeneID 4593) | -0.394 | 0.809 | -0.191 | -0.0833 | -0.109
YES1 (GeneID 7525) | 0.989 | 1 | 0.111 | 0 | 0.00215
ULK2 (GeneID 9706) | -0.155 | 0.842 | 0.0838 | 0.16 | 0.105
TNNI3K (GeneID 51086) | 0.989 | 1 | 0 | 0 | -0.0892
UHMK1 (GeneID 127933) | -0.895 | 0.74 | -0.0234 | -0.216 | -0.0211
CDK8 (GeneID 1024) | 0.989 | 1 | 0 | 0 | 0.0861
TP53 (GeneID 7157) | -2.03 | 0.583 | -0.158 | -0.11 | -0.184
CAMK1G (GeneID 57172) | 0.687 | 0.958 | 0.15 | 0.251 | -0.13
MASTL (GeneID 84930) | -0.868 | 0.744 | 0.216 | -0.12 | -0.105
PHKB (GeneID 5257) | 0.343 | 0.911 | 0.157 | 0.0689 | 0.0292
FN1 (GeneID 2335) | 0.989 | 1 | 0 | 0 | 0.0258
RELA (GeneID 5970) | -0.266 | 0.827 | 0.0971 | 0.0672 | -0.0186
PDPK1 (GeneID 5170) | -0.331 | 0.818 | 0.165 | -0.0209 | -0.0693
PFKFB4 (GeneID 5210) | -0.217 | 0.834 | -0.024 | 0.0494 | -0.0338
CDC42BPB (GeneID 9578) | 0.225 | 0.895 | -0.071 | -0.105 | -0.142
RIOK2 (GeneID 55781) | -1.88 | 0.604 | 0.0415 | -0.0133 | -0.127
MAP2K4 (GeneID 6416) | -0.71 | 0.766 | -0.109 | -0.0427 | -0.0146
PKDCC (GeneID 91461) | -0.19 | 0.838 | 0.0494 | 0.029 | 0.0484
PKIA (GeneID 5569) | 0.989 | 1 | 0.248 | 0.213 | 0.0699
FASTK (GeneID 10922) | -0.541 | 0.789 | -0.0457 | -0.0709 | 0.0154
PRKDC (GeneID 5591) | 0.154 | 0.885 | 0.103 | -0.103 | -0.0298
IPPK (GeneID 64768) | -1.14 | 0.706 | 0.194 | 0.213 | -0.11
